Measured values as given in article PMC7819943, “Rice protein-binding microarrays: a tool to detect cis-acting elements near promoter regions in rice”.
This is one part of the list.

Target: T1, OsSMF1 (Oryza sativa, UniProt Q6ZLB0 1-436)
T1 sequence: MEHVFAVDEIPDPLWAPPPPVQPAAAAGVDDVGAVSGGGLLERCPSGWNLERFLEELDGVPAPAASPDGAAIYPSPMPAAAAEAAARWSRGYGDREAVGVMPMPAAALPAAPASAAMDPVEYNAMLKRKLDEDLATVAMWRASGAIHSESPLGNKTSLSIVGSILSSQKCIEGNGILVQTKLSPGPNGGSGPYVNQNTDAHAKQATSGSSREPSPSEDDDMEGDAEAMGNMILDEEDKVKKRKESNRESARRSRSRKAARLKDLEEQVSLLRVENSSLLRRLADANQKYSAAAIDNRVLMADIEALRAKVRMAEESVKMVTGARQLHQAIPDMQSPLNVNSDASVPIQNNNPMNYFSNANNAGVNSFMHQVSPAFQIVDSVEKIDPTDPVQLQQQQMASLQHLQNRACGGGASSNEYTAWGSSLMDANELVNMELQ
Experiment: protein-binding microarray (RPBM); PBS, 2% BSA, 51.3 ng/ul salmon testes DNA, 50 uM zinc acetate, 200 nM TF, 25 C, 1 h; high values mean tight binding
Conditions: protein: recombinant; tags: N-terminal polyhistidine and DsRed monomer fusion (pET32a); chain copies: 2; label: CyDye5-dUTP incorporated in the synthesized complementary strand; 3' TTTTT single-stranded linker to array surface; dsDNA, one strand shown
Outline: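 Binding signal here means per-feature fluorescence intensity in arbitrary units. The values were read on an Axon 4000B scanner after a custom Agilent array, double-stranded by primer extension with Cy5-dUTP, was incubated with 200 nM protein at 25 °C for 1 h in PBS with 2% BSA, salmon testes DNA and 50 µM zinc acetate, then washed. The proteins were transcription factors with an N-terminal polyhistidine tag and DsRed, expressed in E. coli BL21-CodonPlus and purified on Ni–NTA.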

In order of rising binding signal:
1. TCCCATCATGTTCACAACTTGCTCCCTGCTTACCTGGTGACGGAGTCACCTAGTGCAG  3150 fluorescence intensity (a.u.)
2. CTCTTGATGCTGTTGACTCTGTAAACAAAATGCGTAATCACGGAGTCACCTAGTGCAG  3170 fluorescence intensity (a.u.)
3. CAAAGTGTAGGGAGACTTTACAAGTCATAAATTACTCATACGGAGTCACCTAGTGCAG  3220 fluorescence intensity (a.u.)
4. TAATATGAGGAAGTGAGCTCGGTGTAACATCGTGTCACTGCGGAGTCACCTAGTGCAG  3290 fluorescence intensity (a.u.)
5. ATCTCATGCTTTGCCCAGTCAGAAACTCAGGATACAAACTCGGAGTCACCTAGTGCAG  3310 fluorescence intensity (a.u.)
6. ACTTTAAAATGACCACGCCATACAGTTATTACAGCGATAACGGAGTCACCTAGTGCAG  3310 fluorescence intensity (a.u.)
7. AAAGGGGATCTCTGGTCTCGCCGAACCGCAACCCAACCCACGGAGTCACCTAGTGCAG  3310 fluorescence intensity (a.u.)
8. TGATGATGACATGCTGATCGGTTCATCTGTAAACGAGTGTCGGAGTCACCTAGTGCAG  3360 fluorescence intensity (a.u.)
9. TCTAATGTTTGGGGAGGATTGAGGAAATTAATCGGCCAAACGGAGTCACCTAGTGCAG  3390 fluorescence intensity (a.u.)
10. GATTAGTTGCTCCTTCTCCATGATCGTTAGTTGTTCGAATCGGAGTCACCTAGTGCAG  3400 fluorescence intensity (a.u.)
11. CGGTGGCTCGCGTGAGGAGGCGAGGCGGGCCTGGGCATGGCGGAGTCACCTAGTGCAG  3420 fluorescence intensity (a.u.)
12. ATTTTCTATATATAGTATTTCTATACATCTAAAGTTTATACGGAGTCACCTAGTGCAG  3490 fluorescence intensity (a.u.)
13. TTAACGAGCCACGCTTACGTTTCTTGGAGTATTTGCCTTTCGGAGTCACCTAGTGCAG  3560 fluorescence intensity (a.u.)
14. ACCTCCGTGTGGGGCCCACGTGACAGCGACCCACTCGCCCCGGAGTCACCTAGTGCAG  3580 fluorescence intensity (a.u.)
15. CAACCTGGCACCACTTGAGAACACGCAAGCTTGGCTCTTGCGGAGTCACCTAGTGCAG  3710 fluorescence intensity (a.u.)
16. AATGTGCCGGCCATGGTAGGGCCACGCTGGCCAGTCACACCGGAGTCACCTAGTGCAG  3720 fluorescence intensity (a.u.)
17. ACCACAGCAGATTTAGTTTAGGAATTCTGACATGTATCCACGGAGTCACCTAGTGCAG  3760 fluorescence intensity (a.u.)
18. GAGATCAGCAGCGAGAACGCGGGGCCGGGGTGTAGACAGTCGGAGTCACCTAGTGCAG  3810 fluorescence intensity (a.u.)
19. TGTCGTCTTCGCGATGTCCTTCTCATCGTCGTCCCCTCCGCGGAGTCACCTAGTGCAG  3850 fluorescence intensity (a.u.)
20. CGGTCCGGGCGATTTGACCGGTCAAAAGGCGTGGCCACGACGGAGTCACCTAGTGCAG  3850 fluorescence intensity (a.u.)
21. CCAACAACGATGAACACACGTACGTAGACCACTCCTTTGGCGGAGTCACCTAGTGCAG  3890 fluorescence intensity (a.u.)
22. CGGCGCGCCTCGATGAGGTGGCGCGGGAGGAGGCCTCGGCCGGAGTCACCTAGTGCAG  3910 fluorescence intensity (a.u.)
23. GGAAGAGATAAGAGGGTGACGAGGACTCAGATCGATGCGCCGGAGTCACCTAGTGCAG  4350 fluorescence intensity (a.u.)
24. CCCAAAATATATGTGACTGATACGTGGGTCCCATTGACACCGGAGTCACCTAGTGCAG  4370 fluorescence intensity (a.u.)
25. TTGCAAAATCTACAGCATCCACGCCACGGAAGAGCAGATCCGGAGTCACCTAGTGCAG  4440 fluorescence intensity (a.u.)
26. AGCCAAAAGGCAGCTGGCCACGTCTAATCTGGTTTCCATCCGGAGTCACCTAGTGCAG  4450 fluorescence intensity (a.u.)
27. TATTTATTTATTGAAATCCTGCTAAATCATCTACTCCCAACGGAGTCACCTAGTGCAG  4520 fluorescence intensity (a.u.)
28. CCGGAGGGCGTTGACGTCGATGCCGATGTGGTCGTAGGTGCGGAGTCACCTAGTGCAG  4620 fluorescence intensity (a.u.)
29. GACTAATCACAATGCATACGTCAGATGAAGCGTGCGTAGCCGGAGTCACCTAGTGCAG  4930 fluorescence intensity (a.u.)
30. GTGGTGGTTAATGAAGCTTAAACATGCCGCCGTGTCGATGCGGAGTCACCTAGTGCAG  4940 fluorescence intensity (a.u.)
31. AGACACGGCAGAGACAACGGCATGGGCGGCTTAGCTTATACGGAGTCACCTAGTGCAG  5010 fluorescence intensity (a.u.)
32. CCATAGTTTACGAAGCCGGAGTACGTGGAGCCAACTCACCCGGAGTCACCTAGTGCAG  5040 fluorescence intensity (a.u.)
33. GTATTGAGAATTGTATGACTAATCAATGTTGCCTTACTTACGGAGTCACCTAGTGCAG  5200 fluorescence intensity (a.u.)
34. CGGTCTCACGGTCGCTGCCACCCCGTCCCCACGACGACACCGGAGTCACCTAGTGCAG  5310 fluorescence intensity (a.u.)
35. CGATCCGTTTTCATCCTAGTCAGCGGTCAGAGCAGATATCCGGAGTCACCTAGTGCAG  5660 fluorescence intensity (a.u.)
36. AGGCTTTCGCTATGACTTGTCCCCTGGAAAGGTCTATTTACGGAGTCACCTAGTGCAG  6100 fluorescence intensity (a.u.)
37. CTTACATCCTTTAAATATGACGTAGATCAGAGATATGACGCGGAGTCACCTAGTGCAG  6430 fluorescence intensity (a.u.)
38. CCAATGCCGTCGCCACCCACATCACCACCCGGCGCACTCACGGAGTCACCTAGTGCAG  6440 fluorescence intensity (a.u.)
39. GGTCAGCGCTGGCGTCACCCTCCACTCCCTCTCCTTCCGCCGGAGTCACCTAGTGCAG  6540 fluorescence intensity (a.u.)
40. CTAATTACGTCATGATTTGACAATGTGGTGTGGTGCTACACGGAGTCACCTAGTGCAG  6670 fluorescence intensity (a.u.)
41. CCGCCGCCGATGCAATCTGACGCGGCGGCGCCGGCCGCCGCGGAGTCACCTAGTGCAG  7220 fluorescence intensity (a.u.)
42. TCCTAGGTGAAACAACCACGTCATTTCACGGGTGAATCCACGGAGTCACCTAGTGCAG  7800 fluorescence intensity (a.u.)
43. GTTTTCTGTCTCTTACGTGTACCTACCCATCGTTGAAACACGGAGTCACCTAGTGCAG  9010 fluorescence intensity (a.u.)
44. GGGCGCGTACAAAATCGCAGTCGTGCTCGTCTCATCCCGCCGGAGTCACCTAGTGCAG  13300 fluorescence intensity (a.u.)
45. CAAAGCCCTTCATCTCCTTGTCATCTTGAGTTGCTTGAGCCGGAGTCACCTAGTGCAG  16600 fluorescence intensity (a.u.)
46. AGTTCTTGGGCTCCGGCGGCAGCCGGCCGGTGTTGGGCGCCGGAGTCACCTAGTGCAG  18000 fluorescence intensity (a.u.)
47. GTCTTTCTCCTTCTCCTCCTCCTTCCTCTCGCTCTCTCCTCGGAGTCACCTAGTGCAG  19600 fluorescence intensity (a.u.)
48. TCCATCACTGGGCTATAAGGTTTCAAATTTGTGCATTAAACGGAGTCACCTAGTGCAG  19700 fluorescence intensity (a.u.)
49. TTTCCGTGCGGGAGGGATTAGTTCCCATCGCTGGAATCCGCGGAGTCACCTAGTGCAG  26200 fluorescence intensity (a.u.)
50. GTTTTGGCACGATATTTGTGGTTTCTAAAGTTAACTAATACGGAGTCACCTAGTGCAG  28300 fluorescence intensity (a.u.)
51. AAAACGTAAATGTACAAGATTAAAGAAACATAGCTATGTTCGGAGTCACCTAGTGCAG  29000 fluorescence intensity (a.u.)
52. GAGGTACCGGCCGTACGCGCCGCGGAGGCGGACGTAGGGCCGGAGTCACCTAGTGCAG  31200 fluorescence intensity (a.u.)
53. GTGCAGATCCACTGTCTGCTCATTGGGCTTATTCATGGCTCGGAGTCACCTAGTGCAG  40700 fluorescence intensity (a.u.)
54. TTGCCACGTAATCGCTACGTCAATGCCACGTGGGACGGAGCGGAGTCACCTAGTGCAG  43800 fluorescence intensity (a.u.)
